Experimental data published in patent US7001907B2, “Peptide-containing α-ketoamide cysteine and serine protease inhibitors” (Cephaon, Inc., priority 1997, dated 2006).
Read-outs that look alike come from different tables or passages of the source. The structures given here were assigned with low confidence; some may be wrong.

The chains behind the UniProt entries cited, without tags or fusion partners.
UniProt P07384, whole entry: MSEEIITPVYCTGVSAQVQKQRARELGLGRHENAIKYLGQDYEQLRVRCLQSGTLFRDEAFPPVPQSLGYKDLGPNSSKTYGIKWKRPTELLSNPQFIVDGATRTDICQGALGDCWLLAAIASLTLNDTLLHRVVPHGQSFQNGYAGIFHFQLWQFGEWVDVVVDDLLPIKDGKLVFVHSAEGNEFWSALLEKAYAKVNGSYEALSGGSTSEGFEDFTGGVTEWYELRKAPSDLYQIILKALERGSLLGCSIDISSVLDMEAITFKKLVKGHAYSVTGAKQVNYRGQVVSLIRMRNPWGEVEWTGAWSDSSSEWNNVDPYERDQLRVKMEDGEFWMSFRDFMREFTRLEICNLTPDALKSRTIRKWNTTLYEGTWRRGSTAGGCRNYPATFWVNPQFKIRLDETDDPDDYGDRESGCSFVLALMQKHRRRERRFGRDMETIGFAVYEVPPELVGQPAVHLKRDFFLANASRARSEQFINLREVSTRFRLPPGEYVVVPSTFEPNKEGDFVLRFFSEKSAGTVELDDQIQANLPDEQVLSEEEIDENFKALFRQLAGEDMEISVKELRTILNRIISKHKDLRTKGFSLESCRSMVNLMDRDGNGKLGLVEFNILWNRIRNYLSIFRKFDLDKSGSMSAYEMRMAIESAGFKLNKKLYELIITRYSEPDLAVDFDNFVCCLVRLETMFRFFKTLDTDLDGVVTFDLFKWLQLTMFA
UniProt P04632, whole entry partner: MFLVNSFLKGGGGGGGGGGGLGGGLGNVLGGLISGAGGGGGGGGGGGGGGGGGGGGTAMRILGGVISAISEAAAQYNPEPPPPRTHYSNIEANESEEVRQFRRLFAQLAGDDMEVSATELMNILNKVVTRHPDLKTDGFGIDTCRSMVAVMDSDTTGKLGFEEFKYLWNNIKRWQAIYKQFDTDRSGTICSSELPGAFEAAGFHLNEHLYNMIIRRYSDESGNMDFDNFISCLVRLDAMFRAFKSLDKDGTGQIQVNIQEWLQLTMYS

Target: Recombinant human calpain I (Homo sapiens, UniProt P07384)
Experiment: Inhibition of cysteine protease activity: calpain I, Succ-Leu-Tyr-MNA substrate hydrolysis
Settings: read-out: Calpain IC50 nM
[1] = Table 5, achiral P2 mimetic α-ketoamides

| SMILES | IC50 [1] [nM] | further results |
| --- | --- | --- |
| CS(=O)(=O)N[C@H](COCc1ccccc1)C(=O)N[C@@H](Cc1ccccc1)C(=O)C(=O)NCCNS(=O)(=O)c1ccc(-c2cccs2)s1 |  | IC50 (Table 2, linear α-ketoamides): 11 nM |
| CC(=O)Nc1cccc(-c2ccc(S(=O)(=O)NCCNC(=O)C(=O)[C@H](Cc3ccccc3)NC(=O)c3c(Cl)cccc3Cl)s2)c1 | 20 |  |
| CC(=O)N1CCN(Cc2ccc(S(=O)(=O)NCCNC(=O)C(=O)[C@H](Cc3ccccc3)NC(=O)c3c(Cl)cccc3Cl)cc2)CC1 | 100 |  |
| CCN(C)Cc1cccc(-c2ccc(S(=O)(=O)NCCNC(=O)C(=O)[C@H](Cc3ccccc3)NC(=O)[C@@H](COCc3ccccc3)NS(C)(=O)=O)s2)c1 |  | IC50 (Table 4, α-ketoamides): 10 nM |
| C[C@@H](CNC(=O)C(=O)[C@H](Cc1ccccc1)NC(=O)[C@@H](COCc1ccccc1)NS(C)(=O)=O)NS(=O)(=O)c1ccccc1 |  | IC50 (Table 3, branched-chain α-ketoamides): 26 nM |

More lines, main results first:

| IC50 [1] [nM] | SMILES | further results |
| --- | --- | --- |
| 1000 | CC/C=C/CC(=O)N[C@@H](Cc1ccccc1)C(=O)C(=O)NCCNS(=O)(=O)c1ccc(-c2ccccn2)s1 |  |
| 28 | O=C(NCCNS(=O)(=O)c1ccc(-c2ccccn2)s1)C(=O)[C@H](Cc1ccccc1)NC(=O)c1c(F)c(F)c(F)c(F)c1F |  |
| 58 | O=C(NCCNS(=O)(=O)c1ccc(-c2ccon2)s1)C(=O)[C@H](Cc1ccccc1)NC(=O)c1c(F)cccc1C(F)(F)F |  |
| 32 | O=C(NCCNS(=O)(=O)c1ccc(-c2ccon2)s1)C(=O)[C@H](Cc1ccccc1)NC(=O)c1c(F)c(F)c(F)c(F)c1F |  |
| 85 | O=C(NCCNS(=O)(=O)c1ccc(-c2ccccn2)s1)C(=O)[C@H](Cc1ccccc1)NC(=O)c1c(F)cc(F)cc1F |  |
